The other results are listed elsewhere or left out.
What was measured:
Test in all cases: log2 fold change, soluble protein after heating vs DMSO (PISA); higher = thermal stabilisation; K562 cells, 10 uM, 30 min; active = over 0.2 and 3.5 SD of the protein, either way, in both replicates (recomputed)
saracatinib = compound: CN1CCN(CCOc2cc(OC3CCOCC3)c3c(Nc4c(Cl)ccc5c4OCO5)ncnc3c2)CC1 [saracatinib]
Procedure, shortened: (§1)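 K562 cells at 2×10^6 cells/mL were exposed to 10 μM compound for 30 min, then aliquots were heated for 3 min across 48°C-58°C, pooled, and extracted in PBS containing 0.5% NP-40 at 4°C. The supernatant after 21,000xg for 90 min was taken as soluble protein and measured by TMTpro 16plex LC-MS/MS with channel sums equalised. Thermal stability is reported relative to control samples, with values from duplicates. Fold changes are given on a log2 scale.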

By UniProt entry, the sequences of proteins in these tests, tags left out. Where a name states a change or a piece, a line headed by the entry shows the natural chain unless it says otherwise.
UniProt Q9P2E9: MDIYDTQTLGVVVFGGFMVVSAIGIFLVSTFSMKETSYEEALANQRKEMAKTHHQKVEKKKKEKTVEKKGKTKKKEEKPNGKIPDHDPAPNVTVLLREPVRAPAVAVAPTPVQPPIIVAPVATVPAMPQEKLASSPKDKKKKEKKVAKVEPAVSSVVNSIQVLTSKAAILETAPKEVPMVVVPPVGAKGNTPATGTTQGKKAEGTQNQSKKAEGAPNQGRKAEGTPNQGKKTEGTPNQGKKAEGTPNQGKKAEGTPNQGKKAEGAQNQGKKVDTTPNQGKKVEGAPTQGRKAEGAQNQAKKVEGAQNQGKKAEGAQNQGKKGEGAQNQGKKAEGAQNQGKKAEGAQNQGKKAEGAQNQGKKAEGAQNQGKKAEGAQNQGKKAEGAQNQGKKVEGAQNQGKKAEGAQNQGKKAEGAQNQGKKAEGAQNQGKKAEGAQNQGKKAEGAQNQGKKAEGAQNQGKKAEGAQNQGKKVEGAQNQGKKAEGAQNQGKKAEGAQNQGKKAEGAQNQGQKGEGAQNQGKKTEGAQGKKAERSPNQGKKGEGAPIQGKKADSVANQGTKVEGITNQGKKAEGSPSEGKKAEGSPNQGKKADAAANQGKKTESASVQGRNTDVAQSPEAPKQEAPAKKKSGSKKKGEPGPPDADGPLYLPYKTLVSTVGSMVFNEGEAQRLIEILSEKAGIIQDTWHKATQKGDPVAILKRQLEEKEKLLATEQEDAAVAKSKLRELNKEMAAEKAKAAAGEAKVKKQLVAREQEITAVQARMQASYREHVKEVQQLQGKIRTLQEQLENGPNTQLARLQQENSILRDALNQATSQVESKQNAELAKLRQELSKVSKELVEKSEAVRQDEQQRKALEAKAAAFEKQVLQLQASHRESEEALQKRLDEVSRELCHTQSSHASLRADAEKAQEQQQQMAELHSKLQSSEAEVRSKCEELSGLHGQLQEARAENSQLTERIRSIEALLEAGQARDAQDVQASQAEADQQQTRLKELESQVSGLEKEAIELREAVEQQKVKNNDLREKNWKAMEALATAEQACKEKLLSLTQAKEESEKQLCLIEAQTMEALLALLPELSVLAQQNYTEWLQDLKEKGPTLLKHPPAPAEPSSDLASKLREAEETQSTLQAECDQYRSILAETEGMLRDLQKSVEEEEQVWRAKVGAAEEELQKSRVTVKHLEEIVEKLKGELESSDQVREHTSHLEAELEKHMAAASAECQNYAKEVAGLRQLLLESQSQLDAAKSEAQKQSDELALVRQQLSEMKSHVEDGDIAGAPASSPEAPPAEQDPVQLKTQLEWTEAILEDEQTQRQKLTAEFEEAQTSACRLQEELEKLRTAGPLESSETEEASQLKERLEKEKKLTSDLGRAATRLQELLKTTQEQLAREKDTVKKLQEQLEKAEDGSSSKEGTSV
UniProt P49247: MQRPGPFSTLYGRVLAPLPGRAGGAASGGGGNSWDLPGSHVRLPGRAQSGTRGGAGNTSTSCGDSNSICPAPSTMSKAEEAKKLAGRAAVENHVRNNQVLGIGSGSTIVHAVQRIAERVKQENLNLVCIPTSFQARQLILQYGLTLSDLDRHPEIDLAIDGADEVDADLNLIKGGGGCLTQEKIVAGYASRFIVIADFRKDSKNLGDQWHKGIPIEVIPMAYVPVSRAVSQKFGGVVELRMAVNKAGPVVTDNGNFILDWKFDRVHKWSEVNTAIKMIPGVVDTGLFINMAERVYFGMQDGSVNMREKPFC
UniProt Q8IZ73: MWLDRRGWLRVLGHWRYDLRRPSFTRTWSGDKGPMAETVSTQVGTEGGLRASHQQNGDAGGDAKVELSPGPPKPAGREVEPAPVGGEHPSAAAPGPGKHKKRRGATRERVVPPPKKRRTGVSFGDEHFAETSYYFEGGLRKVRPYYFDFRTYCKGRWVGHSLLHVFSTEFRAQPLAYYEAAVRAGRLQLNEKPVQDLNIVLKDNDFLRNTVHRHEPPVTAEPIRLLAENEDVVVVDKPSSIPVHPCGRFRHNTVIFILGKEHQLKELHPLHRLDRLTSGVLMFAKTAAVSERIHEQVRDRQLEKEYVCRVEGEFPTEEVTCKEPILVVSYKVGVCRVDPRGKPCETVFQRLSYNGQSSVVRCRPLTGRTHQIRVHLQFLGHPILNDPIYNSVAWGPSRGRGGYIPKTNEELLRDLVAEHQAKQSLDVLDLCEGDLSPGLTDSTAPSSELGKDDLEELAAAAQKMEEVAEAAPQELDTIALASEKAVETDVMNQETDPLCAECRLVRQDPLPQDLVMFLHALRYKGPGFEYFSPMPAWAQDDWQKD
UniProt P10155: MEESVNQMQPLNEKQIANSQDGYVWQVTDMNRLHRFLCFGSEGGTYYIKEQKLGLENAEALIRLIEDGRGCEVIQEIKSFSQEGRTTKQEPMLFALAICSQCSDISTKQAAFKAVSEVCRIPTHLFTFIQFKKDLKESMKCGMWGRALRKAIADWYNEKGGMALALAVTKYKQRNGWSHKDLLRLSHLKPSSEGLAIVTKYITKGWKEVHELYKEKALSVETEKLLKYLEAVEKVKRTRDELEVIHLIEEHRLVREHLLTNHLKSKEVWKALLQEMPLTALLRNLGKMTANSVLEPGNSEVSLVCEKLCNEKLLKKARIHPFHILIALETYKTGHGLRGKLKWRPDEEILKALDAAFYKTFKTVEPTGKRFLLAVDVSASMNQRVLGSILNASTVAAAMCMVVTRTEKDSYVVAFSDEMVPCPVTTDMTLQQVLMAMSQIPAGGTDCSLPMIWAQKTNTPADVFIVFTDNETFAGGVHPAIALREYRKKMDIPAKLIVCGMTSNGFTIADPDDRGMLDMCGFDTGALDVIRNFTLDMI
UniProt P78346: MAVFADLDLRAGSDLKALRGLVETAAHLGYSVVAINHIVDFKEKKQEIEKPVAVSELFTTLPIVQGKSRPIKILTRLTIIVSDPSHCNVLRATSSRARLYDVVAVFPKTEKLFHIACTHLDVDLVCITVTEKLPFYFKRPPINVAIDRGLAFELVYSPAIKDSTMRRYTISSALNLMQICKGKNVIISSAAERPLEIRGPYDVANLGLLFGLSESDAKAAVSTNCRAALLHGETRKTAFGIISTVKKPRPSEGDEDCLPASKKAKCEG
UniProt Q9UBF6, whole entry, looked up: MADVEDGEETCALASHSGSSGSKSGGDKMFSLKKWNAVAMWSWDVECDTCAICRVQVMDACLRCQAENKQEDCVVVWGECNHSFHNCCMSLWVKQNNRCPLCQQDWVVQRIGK
UniProt P10301: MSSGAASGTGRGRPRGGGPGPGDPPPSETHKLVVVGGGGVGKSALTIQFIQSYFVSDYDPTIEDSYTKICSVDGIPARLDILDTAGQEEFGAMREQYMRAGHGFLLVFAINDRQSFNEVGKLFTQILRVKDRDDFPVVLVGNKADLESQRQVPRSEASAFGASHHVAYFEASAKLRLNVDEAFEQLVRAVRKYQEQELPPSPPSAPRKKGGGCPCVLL
UniProt P23921: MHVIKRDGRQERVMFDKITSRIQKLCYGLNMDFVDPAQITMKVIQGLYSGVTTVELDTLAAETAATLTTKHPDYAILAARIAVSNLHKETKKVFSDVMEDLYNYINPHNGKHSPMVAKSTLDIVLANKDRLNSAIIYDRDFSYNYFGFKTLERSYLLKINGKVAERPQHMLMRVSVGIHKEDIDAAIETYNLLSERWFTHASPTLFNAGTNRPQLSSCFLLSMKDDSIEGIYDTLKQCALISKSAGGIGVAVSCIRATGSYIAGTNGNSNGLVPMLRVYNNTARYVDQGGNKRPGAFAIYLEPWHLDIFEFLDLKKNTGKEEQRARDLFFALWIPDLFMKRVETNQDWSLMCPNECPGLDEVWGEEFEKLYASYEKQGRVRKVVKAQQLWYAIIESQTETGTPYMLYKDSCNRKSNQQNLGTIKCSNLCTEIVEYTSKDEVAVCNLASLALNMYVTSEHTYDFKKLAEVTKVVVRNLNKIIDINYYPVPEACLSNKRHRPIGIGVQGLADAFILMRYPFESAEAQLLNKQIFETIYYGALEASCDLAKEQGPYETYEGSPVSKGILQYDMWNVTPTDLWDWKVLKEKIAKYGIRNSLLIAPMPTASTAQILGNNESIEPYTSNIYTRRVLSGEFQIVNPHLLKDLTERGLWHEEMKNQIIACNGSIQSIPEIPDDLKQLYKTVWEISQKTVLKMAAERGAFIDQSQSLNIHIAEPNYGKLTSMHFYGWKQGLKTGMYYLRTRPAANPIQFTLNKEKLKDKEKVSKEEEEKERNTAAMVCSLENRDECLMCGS
UniProt O75818: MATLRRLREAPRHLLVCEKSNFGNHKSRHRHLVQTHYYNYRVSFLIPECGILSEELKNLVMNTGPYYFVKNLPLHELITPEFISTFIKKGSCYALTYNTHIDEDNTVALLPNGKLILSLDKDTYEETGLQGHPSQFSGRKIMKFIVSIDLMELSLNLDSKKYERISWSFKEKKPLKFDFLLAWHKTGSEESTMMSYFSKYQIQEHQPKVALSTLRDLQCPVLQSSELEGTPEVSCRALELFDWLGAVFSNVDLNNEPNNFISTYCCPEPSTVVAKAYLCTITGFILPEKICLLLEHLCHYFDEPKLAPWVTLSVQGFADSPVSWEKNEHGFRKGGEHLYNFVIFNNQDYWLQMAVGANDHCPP
UniProt P78345: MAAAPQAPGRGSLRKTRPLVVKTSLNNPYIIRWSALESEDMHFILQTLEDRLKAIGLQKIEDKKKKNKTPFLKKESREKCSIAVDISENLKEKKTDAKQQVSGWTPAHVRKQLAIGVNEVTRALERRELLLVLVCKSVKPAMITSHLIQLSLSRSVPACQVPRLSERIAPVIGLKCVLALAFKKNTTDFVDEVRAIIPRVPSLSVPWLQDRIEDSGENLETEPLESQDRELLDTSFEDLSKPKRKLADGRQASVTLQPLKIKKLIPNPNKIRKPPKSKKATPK
UniProt P31350, whole entry, looked up: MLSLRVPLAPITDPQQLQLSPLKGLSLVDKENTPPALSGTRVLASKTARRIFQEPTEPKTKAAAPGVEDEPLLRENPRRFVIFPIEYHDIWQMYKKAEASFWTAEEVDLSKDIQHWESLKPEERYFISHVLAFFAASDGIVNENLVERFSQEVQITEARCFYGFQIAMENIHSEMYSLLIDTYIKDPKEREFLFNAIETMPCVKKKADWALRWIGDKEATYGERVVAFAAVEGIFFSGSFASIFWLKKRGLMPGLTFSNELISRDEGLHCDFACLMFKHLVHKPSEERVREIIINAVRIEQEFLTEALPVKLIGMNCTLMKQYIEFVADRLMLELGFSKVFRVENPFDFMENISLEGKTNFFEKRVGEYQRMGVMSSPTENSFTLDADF
UniProt Q92901: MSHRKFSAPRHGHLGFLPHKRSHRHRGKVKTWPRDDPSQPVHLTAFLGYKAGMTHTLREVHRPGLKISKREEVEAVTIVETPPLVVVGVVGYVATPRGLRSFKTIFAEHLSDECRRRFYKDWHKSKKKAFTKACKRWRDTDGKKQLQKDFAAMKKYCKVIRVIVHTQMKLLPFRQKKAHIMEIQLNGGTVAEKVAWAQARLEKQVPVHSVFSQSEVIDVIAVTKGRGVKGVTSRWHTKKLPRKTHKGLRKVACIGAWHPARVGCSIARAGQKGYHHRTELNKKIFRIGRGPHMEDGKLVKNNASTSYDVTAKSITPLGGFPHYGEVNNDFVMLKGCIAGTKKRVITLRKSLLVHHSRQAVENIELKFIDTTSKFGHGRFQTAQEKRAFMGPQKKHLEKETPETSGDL

sotrastaurin = compound: CN1CCN(c2nc(C3=C(c4c[nH]c5ccccc45)C(=O)NC3=O)c3ccccc3n2)CC1 [sotrastaurin]
Procedure, shortened: as §1

alvocidib = compound: CN1CC[C@H](c2c(O)cc(O)c3c(=O)cc(-c4ccccc4Cl)oc23)[C@H](O)C1 [alvocidib]
Procedure, shortened: as §1

Tubastatin A = compound: CN1CCc2c(c3ccccc3n2Cc2ccc(C(=O)NO)cc2)C1 [Tubastatin A]
Procedure, shortened: as §1

[1] = compound: CNC(=O)C1=CC=CC=C1NC2=NC(=NC=C2Cl)NC3=C(C=C(C=C3)N4CCOCC4)OC
Procedure, shortened: as §1

defactinib = compound: CNC(=O)c1ccc(Nc2ncc(C(F)(F)F)c(NCc3nccnc3N(C)S(C)(=O)=O)n2)cc1 [defactinib]
Procedure, shortened: as §1

rucaparib = compound: CNCc1ccc(-c2[nH]c3cc(F)cc4c3c2CCNC4=O)cc1 [rucaparib]
Procedure, shortened: as §1

[2] = compound: CNc1nc(-c2ccc3c(N)n[nH]c3c2)cc(N2C[C@@H](C(=O)NC3CCCCC3)CC[C@H]2C)n1
Procedure, shortened: as §1

encorafenib = compound: COC(=O)N[C@@H](C)CNc1nccc(-c2cn(C(C)C)nc2-c2cc(Cl)cc(NS(C)(=O)=O)c2F)n1 [encorafenib]
Procedure, shortened: as §1

[3] = compound: COC(=O)[C@H](CCSC)NC(=O)C1=C(C=C(C=C1)NC[C@H](CS)N)C2=CC=CC=C2
Procedure, shortened: as §1

Measured: log2 fold change

RPL19 (UniProt P84098)
inactive: saracatinib -0.182 | sotrastaurin -0.013 | alvocidib 0.295 | Tubastatin A 0.132 | [1] 0.042 | defactinib 0.368 | rucaparib 0.453 | [2] 0.123 | encorafenib 0.15 | [3] -0.058

RRBP1 (UniProt Q9P2E9)
inactive: saracatinib -0.072 | sotrastaurin -0.048 | alvocidib 0.292 | Tubastatin A 0.157 | [1] 0.014 | defactinib 0.353 | rucaparib 0.387 | [2] 0.079 | encorafenib 0.146 | [3] 0.013

RPIA (UniProt P49247)
inactive: saracatinib 0.004 | sotrastaurin 0.004 | alvocidib -0.002 | Tubastatin A -0.022 | [1] -0.01 | defactinib -0.002 | rucaparib -0.017 | [2] -0.019 | encorafenib -0.015 | [3] -0.014

RPUSD2 (UniProt Q8IZ73)
inactive: saracatinib -0.04 | sotrastaurin -0.002 | alvocidib -0.001 | Tubastatin A 0.028 | [1] 0.002 | defactinib 0.017 | rucaparib 0.006 | [2] -0.034 | encorafenib -0.014 | [3] 0.015

RPL35A (UniProt P18077)
inactive: saracatinib -0.183 | sotrastaurin -0.041 | alvocidib 0.534 | Tubastatin A 0.225 | [1] 0.033 | defactinib 0.627 | rucaparib 0.422 | [2] 0.235 | encorafenib 0.228 | [3] -0.015

RPL8 (UniProt P62917)
inactive: saracatinib -0.215 | sotrastaurin -0.043 | alvocidib 0.485 | Tubastatin A 0.224 | [1] -0.006 | defactinib 0.636 | rucaparib 0.439 | [2] 0.248 | encorafenib 0.216 | [3] 0.003

RO60 (UniProt P10155)
inactive: saracatinib 0.027 | sotrastaurin 0.079 | alvocidib 0.006 | Tubastatin A -0.013 | [1] -0.02 | defactinib 0 | rucaparib 0.018 | [2] -0.059 | encorafenib -0.033 | [3] 0.045

RPL36 (UniProt Q9Y3U8)
inactive: saracatinib -0.123 | sotrastaurin -0.044 | alvocidib 0.432 | Tubastatin A 0.254 | [1] -0.009 | defactinib 0.602 | rucaparib 0.431 | [2] 0.23 | encorafenib 0.184 | [3] 0.033

RPL27 (UniProt P61353)
inactive: saracatinib -0.119 | sotrastaurin 0.063 | alvocidib 0.392 | Tubastatin A 0.198 | [1] 0.017 | defactinib 0.508 | rucaparib 0.333 | [2] 0.179 | encorafenib 0.205 | [3] -0.09

RPL11 (UniProt P62913)
inactive: saracatinib -0.149 | sotrastaurin -0.036 | alvocidib 0.449 | Tubastatin A 0.201 | [1] 0.082 | defactinib 0.483 | rucaparib 0.423 | [2] 0.167 | encorafenib 0.172 | [3] 0.012

RPS27 (UniProt P42677)
inactive: saracatinib -0.066 | sotrastaurin -0.038 | alvocidib 0.061 | Tubastatin A 0.132 | [1] 0.081 | defactinib 0.201 | rucaparib 0.24 | [2] 0.072 | encorafenib 0.039 | [3] -0.023

RPL9 (UniProt P32969)
inactive: saracatinib -0.134 | sotrastaurin -0.062 | alvocidib 0.455 | Tubastatin A 0.247 | [1] 0.125 | defactinib 0.577 | rucaparib 0.472 | [2] 0.126 | encorafenib 0.216 | [3] 0.036

RPL37 (UniProt P61927)
inactive: saracatinib 0.001 | sotrastaurin -0.012 | alvocidib 0.309 | Tubastatin A 0.116 | [1] 0.003 | defactinib 0.424 | rucaparib 0.235 | [2] 0.186 | encorafenib 0.141 | [3] 0.045

RPS11 (UniProt P62280)
inactive: saracatinib -0.095 | sotrastaurin 0 | alvocidib 0.343 | Tubastatin A 0.097 | [1] 0.074 | defactinib 0.367 | rucaparib 0.258 | [2] 0.144 | encorafenib 0.142 | [3] 0.003

RPP30 isoform 2 (UniProt P78346)
inactive: saracatinib -0.015 | sotrastaurin -0.066 | alvocidib 0.003 | Tubastatin A -0.004 | [1] -0.049 | defactinib 0.052 | rucaparib 0.131 | [2] -0.056 | encorafenib -0.017 | [3] 0.088

RPL36AL (UniProt Q969Q0)
inactive: saracatinib -0.091 | sotrastaurin -0.003 | alvocidib 0.323 | Tubastatin A 0.064 | [1] 0.068 | defactinib 0.378 | rucaparib 0.479 | [2] 0.127 | encorafenib 0.052 | [3] 0.061

RPL10 (UniProt P27635)
inactive: saracatinib -0.125 | sotrastaurin -0.018 | alvocidib 0.328 | Tubastatin A 0.112 | [1] 0.078 | defactinib 0.427 | rucaparib 0.389 | [2] 0.213 | encorafenib 0.191 | [3] 0.001

RNF7 (UniProt Q9UBF6)
inactive: saracatinib -0.008 | sotrastaurin 0.154 | alvocidib -0.033 | Tubastatin A -0.034 | [1] -0.012 | defactinib -0.031 | rucaparib -0.004 | [2] 0 | encorafenib -0.015 | [3] 0.057

RPL36A (UniProt P83881)
inactive: saracatinib -0.219 | sotrastaurin 0.016 | alvocidib 0.381 | Tubastatin A 0.167 | [1] 0.073 | defactinib 0.299 | rucaparib 0.34 | [2] 0.101 | encorafenib 0.188 | [3] -0.004

RRAS (UniProt P10301)
inactive: saracatinib 0.021 | sotrastaurin 0.041 | alvocidib 0.004 | Tubastatin A 0.033 | [1] 0.055 | defactinib -0.041 | rucaparib -0.024 | [2] 0.034 | encorafenib -0.017 | [3] 0.037

RPL7 (UniProt P18124)
inactive: saracatinib -0.195 | sotrastaurin -0.042 | alvocidib 0.472 | Tubastatin A 0.276 | [1] 0.063 | defactinib 0.679 | rucaparib 0.506 | [2] 0.246 | encorafenib 0.252 | [3] -0.013

RPL6 (UniProt Q02878)
inactive: saracatinib -0.206 | sotrastaurin -0.041 | alvocidib 0.44 | Tubastatin A 0.248 | [1] 0.075 | defactinib 0.577 | rucaparib 0.506 | [2] 0.261 | encorafenib 0.252 | [3] -0.037

RRM1 (UniProt P23921)
inactive: saracatinib 0.041 | sotrastaurin 0.033 | alvocidib -0.012 | Tubastatin A -0.035 | [1] -0.069 | defactinib -0.013 | rucaparib -0.013 | [2] -0.02 | encorafenib -0.007 | [3] -0.006

RPP40 (UniProt O75818)
inactive: saracatinib 0.045 | sotrastaurin 0.068 | alvocidib 0.042 | Tubastatin A 0 | [1] -0.007 | defactinib 0.025 | rucaparib 0.023 | [2] -0.023 | encorafenib 0.01 | [3] 0.067

Reprinted at random: two records from the list.
RPL6 (UniProt Q02878)
inactive: saracatinib -0.206 | sotrastaurin -0.041 | alvocidib 0.44 | Tubastatin A 0.248 | [1] 0.075 | defactinib 0.577 | rucaparib 0.506 | [2] 0.261 | encorafenib 0.252 | [3] -0.037

RPL7 (UniProt P18124)
inactive: saracatinib -0.195 | sotrastaurin -0.042 | alvocidib 0.472 | Tubastatin A 0.276 | [1] 0.063 | defactinib 0.679 | rucaparib 0.506 | [2] 0.246 | encorafenib 0.252 | [3] -0.013

The results go on:

RPP38 (UniProt P78345)
inactive: saracatinib 0.027 | sotrastaurin -0.016 | alvocidib 0.028 | Tubastatin A 0.045 | [1] 0.02 | defactinib -0.008 | rucaparib -0.003 | [2] 0.008 | encorafenib 0.03 | [3] 0.008

RPL14 (UniProt P50914)
inactive: saracatinib -0.159 | sotrastaurin -0.062 | alvocidib 0.433 | Tubastatin A 0.251 | [1] 0.094 | defactinib 0.625 | rucaparib 0.545 | [2] 0.271 | encorafenib 0.272 | [3] -0.066

RPL26 (UniProt P61254)
inactive: saracatinib -0.089 | sotrastaurin -0.3 | alvocidib 0.258 | Tubastatin A 0.136 | [1] 0.016 | defactinib 0.13 | rucaparib 0.487 | [2] 0.088 | encorafenib 0.045 | [3] -0.192

RRM2 isoform 2 (UniProt P31350)
inactive: saracatinib 0.047 | sotrastaurin 0.008 | alvocidib -0.048 | Tubastatin A -0.015 | [1] -0.002 | defactinib 0.015 | rucaparib -0.088 | [2] 0.013 | encorafenib -0.002 | [3] 0.039

RPL3L (UniProt Q92901)
inactive: saracatinib -0.194 | sotrastaurin -0.049 | alvocidib 0.492 | Tubastatin A 0.141 | [1] 0.1 | defactinib 0.68 | rucaparib 0.45 | [2] 0.24 | encorafenib 0.268 | [3] -0.047

RPL27A (UniProt P46776)
inactive: saracatinib -0.119 | sotrastaurin -0.018 | alvocidib 0.399 | Tubastatin A 0.158 | [1] 0.055 | defactinib 0.45 | rucaparib 0.42 | [2] 0.134 | encorafenib 0.157 | [3] 0.096
